Record: PubChem BioAssay AID504774 (Drosophila RNAi Screening Center, 2011)

Test: 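Genes required for cells to withstand methyl methanesulphonate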 (primary screen)
System: Drosophila Kc167 cells
Knock-down reagent: long dsRNA against Drosophila genes, about 0.25 µg dsRNA per well
Timing: about 6 days: 3 days knock-down, then 3 days with or without MMS
Treatment: methyl methanesulphonate 0.004% (w/v) for 3 days after knock-down
Measurement: 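Viability in wells given MMS, read as ATP luminescence, normalised by quantiles plate by plate and averaged across replicates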
Direction: mean viability with MMS and viability with MMS: higher = more surviving cells after MMS
The screen tested about 23,000 reagents; shown is an unselected part of those with a known target gene and a result. 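Values are quantile-normalised luminescence on an arbitrary scale; higher means more cells surviving MMS.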 A plus sign joins genes that one reagent is predicted to hit. No sequences are given here.

| target gene | DRSC id | mean viability with MMS | viability with MMS, replicate 1 | viability with MMS, replicate 2 |
| --- | --- | --- | --- | --- |
| CG6638 | DRSC10680 | 3.54e6 | 3.93e6 | 4.11e6 |
| Ns3 | DRSC18607 | 3.52e6 | 3.93e6 | 4.05e6 |
| Ost48 | DRSC18693 | 3.68e6 | 4.13e6 | 4.17e6 |
| e(y)2b | DRSC12556 | 3.69e6 | 4.11e6 | 4.22e6 |
| IntS1 | DRSC04343 | 3.12e6 | 3.86e6 | 3.58e6 |
| Pfdn2 | DRSC10618 | 3.45e6 | 3.92e6 | 3.88e6 |
| mRpL41 | DRSC06257 | 3.49e6 | 4.01e6 | 3.95e6 |
| Sgs5bis | DRSC16263 | 3.29e6 | 3.71e6 | 3.74e6 |
| CG1986 | DRSC18197 | 3.36e6 | 3.82e6 | 3.83e6 |
| CG13476 | DRSC10019 | 3.56e6 | 4.05e6 | 4.03e6 |
| Hsc70-3 | DRSC20253 | 3.04e6 | 3.69e6 | 3.67e6 |
| CG11248 | DRSC11644 | 3.80e6 | 4.18e6 | 4.29e6 |
| CG7299 | DRSC03043 | 3.32e6 | 3.72e6 | 3.73e6 |
| ZnT77C | DRSC11766 | 3.57e6 | 4.02e6 | 4.07e6 |
| ZnT77C | DRSC11767 | 3.61e6 | 4.04e6 | 4.13e6 |
| Sec23 | DRSC12387 | 3.68e6 | 4.23e6 | 4.15e6 |
| CG13970 | DRSC02311 | 3.58e6 | 4.05e6 | 4.07e6 |
| RpS14a | DRSC18710 | 2.95e6 | 3.42e6 | 3.53e6 |
| CG10283 | DRSC02034 | 3.59e6 | 3.90e6 | 4.27e6 |
| NimB2 | DRSC22645 | 3.46e6 | 3.96e6 | 3.94e6 |
| CG15878 | DRSC08486 | 3.47e6 | 4.00e6 | 3.87e6 |
| Tfb1 | DRSC07082 | 3.17e6 | 3.69e6 | 3.64e6 |
| RhoGAP5A | DRSC18294 | 3.54e6 | 4.20e6 | 3.95e6 |
| Ccp84Aa | DRSC12586 | 3.55e6 | 4.05e6 | 4.02e6 |
| Stip1 | DRSC00756 | 3.77e6 | 4.12e6 | 4.49e6 |
| CG17648 | DRSC00508 | 3.37e6 | 3.80e6 | 3.77e6 |
| Cyp1 | DRSC20234 | 3.54e6 | 4.08e6 | 3.86e6 |
| CG32269 + CG32270 | DRSC08195 | 3.49e6 | 3.96e6 | 3.97e6 |
| Lfg | DRSC06853 | 3.51e6 | 3.88e6 | 4.00e6 |
| CG9426 | DRSC03219 | 3.35e6 | 3.78e6 | 3.78e6 |
| pico | DRSC19430 | 3.59e6 | 4.16e6 | 3.96e6 |
| CG34135 | DRSC12702 | 3.40e6 | 3.75e6 | 3.98e6 |
| Act79B | DRSC11604 | 3.51e6 | 3.94e6 | 4.01e6 |
| Vml | DRSC17695 | 3.52e6 | 4.02e6 | 3.97e6 |
| Vml | DRSC18529 | 3.39e6 | 3.71e6 | 3.98e6 |
| kz | DRSC18786 | 3.28e6 | 3.72e6 | 3.80e6 |
| CG1441 | DRSC06448 | 3.67e6 | 4.18e6 | 4.15e6 |
| Z600 | DRSC11317 | 3.57e6 | 4.02e6 | 4.08e6 |
| CG18335 | DRSC06723 | 3.51e6 | 4.08e6 | 3.84e6 |

Laid out differently: results already given.
target gene,DRSC id,mean viability with MMS,"viability with MMS, replicate 1","viability with MMS, replicate 2"
CG9426,DRSC03219,3.35e6,3.78e6,3.78e6
pico,DRSC19430,3.59e6,4.16e6,3.96e6
CG34135,DRSC12702,3.40e6,3.75e6,3.98e6
Act79B,DRSC11604,3.51e6,3.94e6,4.01e6

Additional reagents follow.
| target gene | DRSC id | mean viability with MMS | viability with MMS, replicate 1 | viability with MMS, replicate 2 |
| --- | --- | --- | --- | --- |
| hebe | DRSC05192 | 3.60e6 | 4.02e6 | 4.14e6 |
| hebe | DRSC06605 | 3.73e6 | 4.23e6 | 4.22e6 |
| hebe | DRSC21614 | 3.62e6 | 4.11e6 | 4.10e6 |
| CG8850 | DRSC07287 | 3.80e6 | 4.47e6 | 4.19e6 |
| Alp12 | DRSC02515 | 3.62e6 | 4.04e6 | 4.18e6 |
| CG3919 | DRSC10389 | 3.46e6 | 3.90e6 | 3.92e6 |
| CG2006 | DRSC15412 | 3.61e6 | 4.00e6 | 4.18e6 |
| CG31437 | DRSC13711 | 3.49e6 | 3.99e6 | 3.94e6 |
| Ets65A | DRSC09968 | 3.53e6 | 3.93e6 | 4.09e6 |
| Ets65A | DRSC10738 | 3.67e6 | 4.24e6 | 4.09e6 |
| Ets65A | DRSC11164 | 3.62e6 | 4.02e6 | 4.19e6 |
| CG31949 | DRSC00110 | 3.64e6 | 4.33e6 | 3.93e6 |
| CG9616 | DRSC16518 | 3.40e6 | 3.88e6 | 3.81e6 |
| VhaSFD | DRSC03471 | 3.39e6 | 3.83e6 | 3.80e6 |
| Atg17 | DRSC12221 | 3.63e6 | 4.14e6 | 4.08e6 |
| Rh3 | DRSC16822 | 3.73e6 | 4.13e6 | 4.25e6 |
| Or74a | DRSC11245 | 3.49e6 | 3.97e6 | 3.94e6 |
| pst | DRSC11003 | 3.59e6 | 3.99e6 | 4.16e6 |
| CG16898 | DRSC06635 | 3.49e6 | 3.91e6 | 3.99e6 |
| CG8547 | DRSC07211 | 3.56e6 | 3.91e6 | 4.19e6 |
| Aos1 | DRSC14113 | 3.27e6 | 3.81e6 | 3.75e6 |
| dah | DRSC20320 | 3.67e6 | 4.04e6 | 4.39e6 |
| CG43316 | DRSC06296 | 3.72e6 | 4.23e6 | 4.32e6 |
| CG43316 | DRSC06297 | 3.53e6 | 4.16e6 | 3.92e6 |
| CG12126 | DRSC06103 | 3.65e6 | 4.15e6 | 4.05e6 |
| CG42735 (retired record) | DRSC00921 | 3.48e6 | 3.81e6 | 4.11e6 |
| CG13559 | DRSC04197 | 3.58e6 | 4.00e6 | 4.12e6 |
| PrBP | DRSC03189 | 3.30e6 | 3.64e6 | 3.78e6 |
| mAcon1 | DRSC01853 | 3.54e6 | 3.94e6 | 4.08e6 |
